# Where “and” joins values, the source holds several entries; their conditions need not be identical. Identical values can stand only once. This continues a long series; more values of the same kind are listed elsewhere.
# Key:
# TC-71 Ewing sarcoma = test: Antitumour activity in TC-71 Ewing sarcoma xenograft model; assay type: in vivo, Athymic nude mice; conditions: 50 mg/kg i.v. q7dx3
# Experimental: (§1) Experiments were performed with female Athymic nude mice, 9-10 weeks old obtained from Harlan Laboratories (Udine, Italy). They were maintained under Specific Pathogen Free conditions with constant temperature and humidity, according to the institutional guidelines.
# (§2) Tumour growth mice was monitored two/three times a week (depending on tumour growth rate, to avoid unnecessary stress to the animals) by Vernier caliper. Mice were sacrificed when tumour reached a mean weight of 2±0.5 gr. The antitumour activity will be expressed as T/C %, where T and C were the mean tumour weight of treated and control groups, respectively. Mice were monitored daily and weighted at least two times a week. Tolerability was evaluated on the basis of body weight loss (BWL) and clinical observation.
# (§3) Statistical analysis was performed with GraphPad Prism version 6.01 software (GraphPad software, Inc., La Jolla, CA, USA). ANOVA test was performed to evaluate if there were statistically significant differences between treated and control groups.
# 5×10^6 TC-71 cells were inoculated subcutaneously in the right flank of mice. The growing tumour masses were measured with the aid of a Vernier caliper, and the tumour weights (1 mm^3=1 mg) were calculated by the formula: length×(width) 2/2. When tumour load achieved about 100 mg, mice were randomized into the experimental groups and treatment started.
# [1] = test system: DD013 dedifferentiated liposarcoma; test: Antitumour activity in DD013 dedifferentiated liposarcoma xenograft model; assay type: in vivo, Athymic nude mice; conditions: Doxorubicin 8 mg/kg q7dx2
# Experimental: as §1, §2, §3
# Briefly, xenografts were obtained by transplanting 3-4 mm tumour fragments s.c. in the flanks of mice. The growing tumour masses were measured with the aid of a Vernier caliper, and the tumour weights (TW, 1 mm^3=1 mg) were calculated by the formula: length×(width) 2/2. When tumour load achieved about 200-400 mg, mice were randomized into the experimental groups.
Structure (SMILES),"TC-71 tumour weight, individual mice (TC-71 Ewing sarcoma; day 9 from inoculum)","TC-71 tumour weight, individual mice (TC-71 Ewing sarcoma; day 16 from inoculum)","TC-71 tumour weight, individual mice (TC-71 Ewing sarcoma; day 18 from inoculum)","TC-71 tumour weight, individual mice (TC-71 Ewing sarcoma; day 25 from inoculum)","DD0113 tumour weight, individual mouse ([1]; day 65 from inoculum)","DD0113 tumour weight, individual mouse ([1]; day 69 from inoculum)"
"CCc1c2c(nc3ccc(OC(=O)N4CCC(N5CCCCC5)CC4)cc13)-c1cc3c(c(=O)n1C2)COC(=O)[C@]3(O)CC [Irinotecan, reference compound]",77.9 mg and 61.1 mg and 51.2 mg and 28.4 mg,5.1 mg and 7.0 mg and 6.9 mg and 22.9 mg,1.9 mg and 2.3 mg and 5.1 mg and 16.6 mg,7.2 mg and 3.1 mg,,
"COc1cccc2c1C(=O)c1c(O)c3c(c(O)c1C2=O)C[C@@](O)(C(=O)CO)C[C@@H]3O[C@H]1C[C@H](N)[C@H](O)[C@H](C)O1 [Doxorubicin, reference compound]",,,,,837.9 mg and 1390.9 mg and 744.7 mg and 532.1 mg,909.3 mg and 1605.4 mg and 834.8 mg and 860.3 mg
